The supplement of paper PMC12819154, “High-throughput peptide-centric local stability assay extends protein–ligand identification to membrane proteins, tissues and bacteria” (Nature Structural & Molecular Biology, 2025)
The other results are listed elsewhere or left out. Small differences around the control level are noise.

Amino acid sequences for entries named in this document (tags omitted). A change or cut given only in a name is not applied to a line headed by its entry.
UniProt Q8N9N5: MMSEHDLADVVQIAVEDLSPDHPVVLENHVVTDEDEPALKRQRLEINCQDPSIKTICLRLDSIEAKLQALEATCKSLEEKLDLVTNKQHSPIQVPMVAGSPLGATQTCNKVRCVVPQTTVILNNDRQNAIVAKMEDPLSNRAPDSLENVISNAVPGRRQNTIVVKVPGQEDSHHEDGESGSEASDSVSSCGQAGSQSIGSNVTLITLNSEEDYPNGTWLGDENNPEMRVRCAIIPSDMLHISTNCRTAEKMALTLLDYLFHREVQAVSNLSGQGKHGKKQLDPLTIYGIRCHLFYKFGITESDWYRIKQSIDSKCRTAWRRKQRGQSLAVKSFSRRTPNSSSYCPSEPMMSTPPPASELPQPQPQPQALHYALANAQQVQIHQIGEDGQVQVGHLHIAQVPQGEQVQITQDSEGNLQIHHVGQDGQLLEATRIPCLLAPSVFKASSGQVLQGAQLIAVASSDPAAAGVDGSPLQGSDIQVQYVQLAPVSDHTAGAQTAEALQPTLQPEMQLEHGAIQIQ
UniProt Q8ND56: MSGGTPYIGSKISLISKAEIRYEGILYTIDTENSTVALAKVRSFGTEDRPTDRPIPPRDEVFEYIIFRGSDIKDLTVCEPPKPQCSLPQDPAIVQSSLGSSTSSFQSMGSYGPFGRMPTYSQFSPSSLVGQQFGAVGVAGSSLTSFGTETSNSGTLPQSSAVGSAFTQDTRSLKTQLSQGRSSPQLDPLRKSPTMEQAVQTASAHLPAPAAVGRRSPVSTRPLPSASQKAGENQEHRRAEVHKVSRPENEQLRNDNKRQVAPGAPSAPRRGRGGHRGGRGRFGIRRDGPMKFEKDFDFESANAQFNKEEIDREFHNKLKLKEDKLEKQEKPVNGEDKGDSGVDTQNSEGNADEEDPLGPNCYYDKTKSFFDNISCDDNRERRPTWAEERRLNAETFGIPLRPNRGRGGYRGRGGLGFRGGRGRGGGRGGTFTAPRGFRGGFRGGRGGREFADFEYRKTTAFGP
UniProt Q8NG27: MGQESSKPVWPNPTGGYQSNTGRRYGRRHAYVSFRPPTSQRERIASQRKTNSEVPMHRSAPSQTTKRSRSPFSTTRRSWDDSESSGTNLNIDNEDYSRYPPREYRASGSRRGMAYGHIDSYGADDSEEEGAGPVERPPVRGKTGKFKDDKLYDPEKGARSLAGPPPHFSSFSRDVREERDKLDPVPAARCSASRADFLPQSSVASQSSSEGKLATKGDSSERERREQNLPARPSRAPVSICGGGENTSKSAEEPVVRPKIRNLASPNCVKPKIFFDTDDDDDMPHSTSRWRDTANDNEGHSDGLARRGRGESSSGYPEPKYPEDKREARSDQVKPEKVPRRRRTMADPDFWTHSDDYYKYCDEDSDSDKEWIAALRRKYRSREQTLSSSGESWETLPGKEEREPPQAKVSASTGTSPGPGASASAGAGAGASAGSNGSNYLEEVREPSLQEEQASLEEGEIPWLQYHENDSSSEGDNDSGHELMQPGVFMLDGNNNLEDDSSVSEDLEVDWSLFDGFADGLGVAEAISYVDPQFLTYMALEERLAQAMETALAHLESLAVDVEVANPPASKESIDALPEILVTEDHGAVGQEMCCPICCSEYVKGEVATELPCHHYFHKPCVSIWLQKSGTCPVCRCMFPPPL
UniProt Q8N6N3: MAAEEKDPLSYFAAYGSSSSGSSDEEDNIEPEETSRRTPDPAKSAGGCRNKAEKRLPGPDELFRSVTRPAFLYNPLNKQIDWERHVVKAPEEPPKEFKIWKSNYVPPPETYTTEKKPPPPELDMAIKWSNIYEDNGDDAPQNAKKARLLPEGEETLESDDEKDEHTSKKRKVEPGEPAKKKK
UniProt Q8N4U5: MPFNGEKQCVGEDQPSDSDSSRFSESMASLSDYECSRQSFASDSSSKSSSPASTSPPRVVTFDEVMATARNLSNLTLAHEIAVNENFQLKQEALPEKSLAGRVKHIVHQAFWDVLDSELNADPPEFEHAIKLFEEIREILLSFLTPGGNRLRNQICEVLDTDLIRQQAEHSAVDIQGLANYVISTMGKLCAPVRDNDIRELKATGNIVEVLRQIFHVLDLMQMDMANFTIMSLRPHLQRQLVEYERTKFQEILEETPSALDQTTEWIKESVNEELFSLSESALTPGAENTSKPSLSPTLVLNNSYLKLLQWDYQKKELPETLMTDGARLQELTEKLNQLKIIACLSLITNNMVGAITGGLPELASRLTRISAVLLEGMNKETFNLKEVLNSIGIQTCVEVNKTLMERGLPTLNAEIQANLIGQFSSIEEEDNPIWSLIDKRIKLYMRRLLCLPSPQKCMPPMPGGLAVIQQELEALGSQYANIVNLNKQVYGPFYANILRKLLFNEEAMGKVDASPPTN
UniProt Q8NEN9: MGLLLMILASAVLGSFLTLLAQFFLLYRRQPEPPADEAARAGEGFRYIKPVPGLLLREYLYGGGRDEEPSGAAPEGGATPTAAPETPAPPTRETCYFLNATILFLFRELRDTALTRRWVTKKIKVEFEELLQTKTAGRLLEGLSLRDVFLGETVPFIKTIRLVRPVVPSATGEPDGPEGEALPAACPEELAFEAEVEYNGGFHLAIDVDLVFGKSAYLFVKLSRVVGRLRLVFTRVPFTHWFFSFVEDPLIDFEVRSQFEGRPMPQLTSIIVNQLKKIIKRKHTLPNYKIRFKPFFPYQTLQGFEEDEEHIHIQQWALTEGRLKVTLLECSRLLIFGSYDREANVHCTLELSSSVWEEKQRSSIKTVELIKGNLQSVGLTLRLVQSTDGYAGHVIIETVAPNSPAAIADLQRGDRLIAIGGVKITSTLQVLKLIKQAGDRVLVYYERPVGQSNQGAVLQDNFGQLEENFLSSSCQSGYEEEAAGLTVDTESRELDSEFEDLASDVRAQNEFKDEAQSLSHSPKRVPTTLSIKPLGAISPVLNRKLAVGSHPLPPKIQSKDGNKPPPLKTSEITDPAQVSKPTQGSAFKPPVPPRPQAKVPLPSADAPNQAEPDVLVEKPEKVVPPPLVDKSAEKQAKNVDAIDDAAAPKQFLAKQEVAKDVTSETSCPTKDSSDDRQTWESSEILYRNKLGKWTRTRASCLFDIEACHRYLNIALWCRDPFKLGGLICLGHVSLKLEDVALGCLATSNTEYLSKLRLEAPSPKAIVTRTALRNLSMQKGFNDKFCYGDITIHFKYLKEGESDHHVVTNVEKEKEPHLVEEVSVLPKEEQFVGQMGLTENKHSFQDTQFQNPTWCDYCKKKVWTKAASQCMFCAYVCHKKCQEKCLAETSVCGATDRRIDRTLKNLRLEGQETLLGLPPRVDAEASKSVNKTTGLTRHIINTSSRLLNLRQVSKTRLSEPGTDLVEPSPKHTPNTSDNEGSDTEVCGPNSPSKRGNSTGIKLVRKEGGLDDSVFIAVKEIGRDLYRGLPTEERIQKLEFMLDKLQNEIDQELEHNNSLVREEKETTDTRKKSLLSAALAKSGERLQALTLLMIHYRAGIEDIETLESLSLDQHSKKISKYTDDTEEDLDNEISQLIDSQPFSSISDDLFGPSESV
UniProt Q8N531: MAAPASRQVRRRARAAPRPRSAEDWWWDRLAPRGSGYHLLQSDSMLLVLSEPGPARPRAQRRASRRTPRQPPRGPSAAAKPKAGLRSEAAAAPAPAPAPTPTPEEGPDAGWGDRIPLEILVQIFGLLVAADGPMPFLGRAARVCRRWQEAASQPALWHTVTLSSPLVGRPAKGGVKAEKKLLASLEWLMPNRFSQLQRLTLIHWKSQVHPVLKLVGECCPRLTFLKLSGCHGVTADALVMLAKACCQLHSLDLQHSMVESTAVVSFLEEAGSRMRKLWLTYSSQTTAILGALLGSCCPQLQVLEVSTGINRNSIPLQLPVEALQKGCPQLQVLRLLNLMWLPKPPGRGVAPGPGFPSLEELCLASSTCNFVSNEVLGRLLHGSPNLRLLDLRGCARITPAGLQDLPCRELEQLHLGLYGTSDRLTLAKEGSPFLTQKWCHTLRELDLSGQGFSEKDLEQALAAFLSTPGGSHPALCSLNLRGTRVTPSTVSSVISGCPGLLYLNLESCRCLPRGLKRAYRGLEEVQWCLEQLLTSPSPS
UniProt Q8NHU6: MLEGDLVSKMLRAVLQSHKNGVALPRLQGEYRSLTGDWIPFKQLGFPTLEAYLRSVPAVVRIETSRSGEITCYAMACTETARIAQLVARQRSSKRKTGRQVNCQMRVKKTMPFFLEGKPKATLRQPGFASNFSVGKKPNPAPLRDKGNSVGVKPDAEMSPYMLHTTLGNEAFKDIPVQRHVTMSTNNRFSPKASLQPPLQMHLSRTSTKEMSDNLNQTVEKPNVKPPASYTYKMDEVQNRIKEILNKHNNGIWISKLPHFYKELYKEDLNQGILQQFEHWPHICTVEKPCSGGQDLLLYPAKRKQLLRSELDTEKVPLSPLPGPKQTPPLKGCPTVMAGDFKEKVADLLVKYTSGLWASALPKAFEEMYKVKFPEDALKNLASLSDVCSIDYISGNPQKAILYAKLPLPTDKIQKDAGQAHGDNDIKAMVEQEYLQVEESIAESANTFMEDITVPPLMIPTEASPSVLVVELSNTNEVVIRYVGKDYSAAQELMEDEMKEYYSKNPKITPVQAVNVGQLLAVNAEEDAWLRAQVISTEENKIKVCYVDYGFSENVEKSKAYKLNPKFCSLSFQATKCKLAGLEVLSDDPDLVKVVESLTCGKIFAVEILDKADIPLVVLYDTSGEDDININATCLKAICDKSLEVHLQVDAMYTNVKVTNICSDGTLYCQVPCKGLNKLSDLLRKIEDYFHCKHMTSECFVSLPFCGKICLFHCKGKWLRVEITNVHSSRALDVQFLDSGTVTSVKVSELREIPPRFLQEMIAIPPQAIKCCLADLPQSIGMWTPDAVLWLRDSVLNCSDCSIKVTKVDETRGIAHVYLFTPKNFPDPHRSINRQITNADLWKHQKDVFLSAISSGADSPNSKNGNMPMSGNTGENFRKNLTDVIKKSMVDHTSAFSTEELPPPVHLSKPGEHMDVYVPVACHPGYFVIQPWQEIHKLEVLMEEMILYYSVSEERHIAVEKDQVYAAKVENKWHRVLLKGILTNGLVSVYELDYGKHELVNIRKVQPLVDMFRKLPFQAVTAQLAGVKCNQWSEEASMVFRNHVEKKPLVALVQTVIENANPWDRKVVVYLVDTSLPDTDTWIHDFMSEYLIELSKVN
UniProt Q8NI37: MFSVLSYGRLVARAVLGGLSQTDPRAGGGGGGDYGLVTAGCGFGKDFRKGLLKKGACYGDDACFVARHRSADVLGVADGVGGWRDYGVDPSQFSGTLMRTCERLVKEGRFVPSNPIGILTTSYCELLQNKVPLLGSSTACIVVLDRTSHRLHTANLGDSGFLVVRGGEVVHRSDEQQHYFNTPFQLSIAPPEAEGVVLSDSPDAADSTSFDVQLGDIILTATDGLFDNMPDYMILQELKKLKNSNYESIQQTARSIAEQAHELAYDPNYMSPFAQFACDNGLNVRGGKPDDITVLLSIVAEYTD
UniProt Q8NDX5: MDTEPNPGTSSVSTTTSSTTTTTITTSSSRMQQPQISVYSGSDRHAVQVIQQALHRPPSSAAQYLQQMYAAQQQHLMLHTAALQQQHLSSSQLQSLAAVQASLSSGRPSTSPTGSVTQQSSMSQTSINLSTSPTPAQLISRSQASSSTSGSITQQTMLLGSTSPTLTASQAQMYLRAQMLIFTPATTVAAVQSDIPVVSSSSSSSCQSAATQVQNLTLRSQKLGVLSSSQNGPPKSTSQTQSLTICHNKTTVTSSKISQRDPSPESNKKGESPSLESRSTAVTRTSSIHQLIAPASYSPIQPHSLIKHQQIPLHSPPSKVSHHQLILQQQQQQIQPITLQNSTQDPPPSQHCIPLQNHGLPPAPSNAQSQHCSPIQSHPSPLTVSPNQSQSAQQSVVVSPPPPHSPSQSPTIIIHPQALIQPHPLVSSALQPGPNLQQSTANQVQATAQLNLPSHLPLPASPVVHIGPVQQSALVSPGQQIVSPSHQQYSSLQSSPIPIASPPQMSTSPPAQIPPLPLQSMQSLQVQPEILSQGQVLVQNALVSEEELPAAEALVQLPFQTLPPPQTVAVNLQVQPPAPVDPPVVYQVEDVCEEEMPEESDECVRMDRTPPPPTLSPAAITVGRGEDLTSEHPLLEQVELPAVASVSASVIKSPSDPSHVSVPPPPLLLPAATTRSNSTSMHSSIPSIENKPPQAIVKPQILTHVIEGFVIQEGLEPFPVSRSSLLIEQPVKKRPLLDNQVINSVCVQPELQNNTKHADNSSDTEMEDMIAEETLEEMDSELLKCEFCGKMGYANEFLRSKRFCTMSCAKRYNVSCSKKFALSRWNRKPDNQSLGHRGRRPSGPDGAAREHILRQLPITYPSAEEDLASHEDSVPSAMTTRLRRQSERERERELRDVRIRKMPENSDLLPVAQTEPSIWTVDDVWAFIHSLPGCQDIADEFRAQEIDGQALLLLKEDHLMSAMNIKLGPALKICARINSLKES
UniProt Q8N6N6: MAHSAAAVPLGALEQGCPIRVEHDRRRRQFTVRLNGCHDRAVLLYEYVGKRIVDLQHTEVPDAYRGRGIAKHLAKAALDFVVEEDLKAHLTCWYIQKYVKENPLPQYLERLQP

Compound: Cc1nc(Nc2ncc(C(=O)Nc3c(C)cccc3Cl)s2)cc(N2CCN(CCO)CC2)n1 [dasatinib]
Assay: log2 fold change of tryptic peptide abundance, ligand vs vehicle (limited proteolysis) (log2 ratio); higher = more trypsin-susceptible (destabilized)
Details: ligand concentration: 5 uM; sample: K562 cleared lysate

Q: For “BANP (peptide sequence: LEINCQDPSIK, peptide start residue: 44) (UniProt Q8N9N5)”, which log2 fold change is on record?
A: Its log2 fold change is 0.408.

Q: With “OXR1 (peptide sequence: TDLNNLEMAIK, peptide start residue: 413) (UniProt Q8N573)” as the target, how does the log2 fold change read?
A: The log2 fold change was -0.611.

Q: How did the log2 fold change turn out when “LRRC47 (peptide sequence: RNALGPGLSPELGPLPALR, peptide start residue: 84) (UniProt Q8N1G4)” was run?
A: The log2 fold change was 0.32.

Q: How did the log2 fold change turn out when “LSM14A (peptide sequence: VSRPENEQLR, peptide start residue: 244) (UniProt Q8ND56)” was run?
A: Its log2 fold change is -0.149.

Q: For “UniProt Q8N587 (peptide sequence: AVTASSHLK, peptide start residue: 233)”, which log2 fold change is on record?
A: Its log2 fold change is -0.291.

Q: How did the log2 fold change turn out when “STXBP6 (peptide sequence: NSAQQFAETAHK, peptide start residue: 192) (UniProt Q8NFX7)” was run?
A: The log2 fold change was -0.17.

Q: “ARFGAP2 (peptide sequence: AAEPNKTEIQTLFKR, peptide start residue: 2) (UniProt Q8N6H7)” was tested. Which log2 fold change did it give?
A: The log2 fold change was -0.158.

Q: With “UniProt Q8NG27 (peptide sequence: DKLDPVPAAR, peptide start residue: 180)” as the target, how does the log2 fold change read?
A: Its log2 fold change is -0.0189.

Q: “UniProt Q8N823 (peptide sequence: CEECDKVFSR, peptide start residue: 511)” was tested. Which log2 fold change did it give?
A: Its log2 fold change is -0.318.

Q: How did the log2 fold change turn out when “WDTC1 (peptide sequence: KWDGDHYDALR, peptide start residue: 410) (UniProt Q8N5D0)” was run?
A: The log2 fold change was -0.143.

Q: How did the log2 fold change turn out when “VPS37A (peptide sequence: QTVLDKYELLTQMK, peptide start residue: 295) (UniProt Q8NEZ2)” was run?
A: Its log2 fold change is 0.119.

Q: “PDPR (peptide sequence: HLTIEQK, peptide start residue: 94) (UniProt Q8NCN5)” was tested. Which log2 fold change did it give?
A: The log2 fold change was 0.62.

Q: Which log2 fold change does the source give for “UniProt Q8N7X4 (peptide sequence: SDVAANGQDEK, peptide start residue: 82)” here?
A: The log2 fold change was 0.038.

Q: How did the log2 fold change turn out when “C1orf52 (peptide sequence: PAFLYNPLNK, peptide start residue: 69) (UniProt Q8N6N3)” was run?
A: The log2 fold change was -0.464.

Q: “MICALL1 (peptide sequence: HRPDLLDFDSLSKDNVFENNR, peptide start residue: 44) (UniProt Q8N3F8)” was tested. Which log2 fold change did it give?
A: Its log2 fold change is -0.47.

Q: How did the log2 fold change turn out when “UniProt Q8NHQ1 (peptide sequence: DLETRPTQHELR, peptide start residue: 286)” was run?
A: The log2 fold change was -0.00851.

Q: Which log2 fold change does the source give for “PTGR2 (peptide sequence: VVLNSRPGK, peptide start residue: 6) (UniProt Q8N8N7)” here?
A: Its log2 fold change is -0.594.

Q: Which log2 fold change does the source give for “TCP11L2 (peptide sequence: SSSPASTSPPR, peptide start residue: 48) (UniProt Q8N4U5)” here?
A: The log2 fold change was -0.144.

Q: How did the log2 fold change turn out when “NHLRC2 (peptide sequence: GNMLFSLIGEGHKDK, peptide start residue: 172) (UniProt Q8NBF2)” was run?
A: Its log2 fold change is -0.195.

Q: Which log2 fold change does the source give for “THOC2 (peptide sequence: YITSCEMVMAPVHEAVVSLHVSK, peptide start residue: 849) (UniProt Q8NI27)” here?
A: The log2 fold change was 0.223.

Q: How did the log2 fold change turn out when “ABHD11 (peptide sequence: TAMLLALQRPELVER, peptide start residue: 146) (UniProt Q8NFV4)” was run?
A: The log2 fold change was 0.189.

Q: “PDZD8 (peptide sequence: KEGGLDDSVFIAVK, peptide start residue: 1004) (UniProt Q8NEN9)” was tested. Which log2 fold change did it give?
A: Its log2 fold change is -0.346.

Q: For “UniProt Q8NBU5 (peptide sequence: HLFENSR, peptide start residue: 115)”, which log2 fold change is on record?
A: The log2 fold change was 0.269.

Q: With “UniProt Q8N531 (peptide sequence: LSGCHGVTADALVMLAK, peptide start residue: 227)” as the target, how does the log2 fold change read?
A: Its log2 fold change is 0.438.

Q: How did the log2 fold change turn out when “TDRD7 (peptide sequence: YTSGLWASALPK, peptide start residue: 352) (UniProt Q8NHU6)” was run?
A: The log2 fold change was -0.612.

Q: For “UniProt Q8NDP4 (peptide sequence: SFSYSATHR, peptide start residue: 236)”, which log2 fold change is on record?
A: Its log2 fold change is 0.0259.

Q: For “UniProt Q8NCW5 (peptide sequence: YHYLGGR, peptide start residue: 255)”, which log2 fold change is on record?
A: The log2 fold change was -0.231.

Q: How did the log2 fold change turn out when “CMYA5 (peptide sequence: GASPIETSSK, peptide start residue: 1423) (UniProt Q8N3K9)” was run?
A: The log2 fold change was -0.117.

Q: Which log2 fold change does the source give for “NUP37 (peptide sequence: TLPLCVIGGDHK, peptide start residue: 307) (UniProt Q8NFH4)” here?
A: The log2 fold change was -0.302.

Q: For “NFATC2IP (peptide sequence: EKHQTLEVSLSR, peptide start residue: 356) (UniProt Q8NCF5)”, which log2 fold change is on record?
A: Its log2 fold change is 0.323.

Q: “PPTC7 (peptide sequence: AVLGGLSQTDPR, peptide start residue: 14) (UniProt Q8NI37)” was tested. Which log2 fold change did it give?
A: The log2 fold change was 0.089.

Q: How did the log2 fold change turn out when “UniProt Q8NDZ2 (peptide sequence: TPQGGLYNRPCLHR, peptide start residue: 420)” was run?
A: Its log2 fold change is -0.547.

Q: “MTMR14 (peptide sequence: DGGFTLEDICMLRR, peptide start residue: 420) (UniProt Q8NCE2)” was tested. Which log2 fold change did it give?
A: The log2 fold change was -0.176.

Q: With “FNBP4 (peptide sequence: TKMPSLVK, peptide start residue: 941) (UniProt Q8N3X1)” as the target, how does the log2 fold change read?
A: Its log2 fold change is 0.296.

Q: For “PHC3 (peptide sequence: HQQIPLHSPPSK, peptide start residue: 308) (UniProt Q8NDX5)”, which log2 fold change is on record?
A: Its log2 fold change is -0.498.

Q: For “SUMF1 (peptide sequence: EANAPGPVPGER, peptide start residue: 73) (UniProt Q8NBK3)”, which log2 fold change is on record?
A: The log2 fold change was 0.0368.

Q: How did the log2 fold change turn out when “SCCPDH (peptide sequence: NVSNLKPVPLIGPK, peptide start residue: 215) (UniProt Q8NBX0)” was run?
A: The log2 fold change was 0.244.

Q: Which log2 fold change does the source give for “NATD1 (peptide sequence: AVLLYEYVGKR, peptide start residue: 41) (UniProt Q8N6N6)” here?
A: Its log2 fold change is -0.351.
